Reference: PubChem BioAssay AID1794845 (National Center for Advancing Translational Sciences (NCATS), 2023)
Screen size: about 6,900 compounds; fewer than 10 were called active. The call rests on the fitted dose curve; in most records, active means well fitted curve in the direction sought with a large enough effect; inconclusive means small, poorly fitted or top-dose-only effect, or another doubt; inactive means no such curve, though single readings can be large or run the other way. The list shows a part of the results.

Protein sequences, listed by entry. Tags and fused reporters are not part of them. Lines headed by an entry give the natural chain unless they say otherwise; changes in a name come on top.
UniProt C7C422: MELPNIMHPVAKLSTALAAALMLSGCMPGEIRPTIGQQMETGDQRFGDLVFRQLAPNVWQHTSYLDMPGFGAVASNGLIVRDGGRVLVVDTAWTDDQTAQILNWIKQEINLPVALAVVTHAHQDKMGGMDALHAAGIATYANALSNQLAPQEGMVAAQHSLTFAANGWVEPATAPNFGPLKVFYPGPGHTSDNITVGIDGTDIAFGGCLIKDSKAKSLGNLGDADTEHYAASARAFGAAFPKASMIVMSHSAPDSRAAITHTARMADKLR

Target: Metallo-beta-lactamase type 2 (Klebsiella pneumoniae) (UniProt C7C422)
Test: qHTS to identify inhibitors of the New Delhi Metallo-beta-lactamase (NDM): primary screen against the NCATS Gemini Collection; further: % of control where 0% means no effect
Details: NDM-1 enzyme, meropenem hydrolysis, absorbance 300 nm; at 38.4 µM (top of the series) unless noted
Outline: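 Meropenem hydrolysis (50 uM final) by 2 nM NDM-1 read as 300 nm absorbance after 30 min, following >30 min compound–enzyme preincubation in HEPES pH 7.0 with 1 uM ZnSO4 and 0.01% Tween20.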

Activity % (negative = inhibition), inactive:
O=c1cc(N2CCOCC2)oc2c(-c3ccccc3O)nccc12 23.4% [at 57.5 µM]
C=CCn1nc(C)c(CN2CC[C@H](N3CCN(C)CC3)[C@H](CCC(=O)O)C2)c1C 10.5%
COc1nc2nc(CCc3ccccc3)n(C)c2cc1-c1ccnn1C -2.8% [at 57.5 µM]
CNC(=O)[C@@H]1CN(C(=O)Cc2c[nH]c3ccccc23)C[C@H]1COC 17.3%
O=C(c1ccc(F)c(Cl)c1)N1C[C@@H](CO)[C@H](c2ccccn2)C1 -2.92%
CN(c1ncccc1CNC(=O)C1CCOCC1)C1CCCCC1 -0.675%
COCCc1noc([C@@H]2CC(F)(F)CN2C(=O)c2ccoc2)n1 10.5%
COCc1ncc(C)n1C1CCN(C(=O)Cc2cccc(F)c2)CC1 -1.37%
CC1=C[C@@H](CNC(=O)CCCC(=O)O)[C@H](C(C)C)C[C@H]1Cc1nc2ccccc2n1C 1.42% [at 57.5 µM]
COc1ccc(-c2ccc3nnc(CNC(=O)CCc4ccccc4)n3n2)cc1 6.6%
FC(F)(F)c1ccc(CN2CCCC3(CC(Cc4ccccc4)=NO3)C2)cc1 (stereo not given) 1.91%
Cc1nc(CC(=O)NCc2cccnc2N2CCOCC2)cs1 -0.451%
COCC(=O)N[C@@H]1CN(Cc2ccc(C)s2)CC[C@@H]1c1n[nH]c(C)n1 1.72%
OCc1nc(C2CCNC2)no1 (stereo not given) -2.89%
Cc1ccc(C(=O)NCCn2c(C)cnc2C)s1 0.905%
C#CCNC(=O)[C@@H]1CCCN1[C@@H](C(=O)NC)c1ccccc1 9.17% [at 57.5 µM]
COc1ccc(CCNC(=O)CC(c2cccc(F)c2)c2cn(C)c3ccccc23)cc1OC (stereo not given) -0.357%
COc1cc(C(=O)NCCCn2ccnn2)ccc1OC1CCN(C(C)=O)CC1 7.31%
O=S(=O)(c1ccc2c(c1)CCC2)N1CCC(Cc2nc(-c3ccncc3)n[nH]2)C1 (stereo not given) -3.42%
Cn1cc(CN2CCN(c3cnccn3)CC2)c(-c2ccc(C3CCCCC3)cc2)n1 14.1%
CCCCc1cn(CC2CCN(C(=O)c3ccsc3)CC2)nn1 2.84%
Cc1ccc(CN2C(=O)NC3(CCN(C(=O)c4cccc(Cl)c4)C3)C2=O)cc1 (stereo not given) 5.78%
O=C(C1CC1)N1CCN2C(=O)N(C3CCCCC3)C[C@H]2C1 10.7% [at 77.1 µM]
O=C(NCc1ccnc2[nH]ccc12)c1cncc(Br)c1 59.2% [at 57.5 µM]
COc1ccc(CC(=O)Nc2ccc3c(c2)CN(CCOc2ccccc2)C(=O)C(C)O3)cc1 (stereo not given) 2.19%
O=Cc1ccc(-c2cc(C(F)(F)F)ccc2Cl)cc1 -16% [at 57.5 µM]
CCn1ccnc1CN(C)C(=O)c1cc(COc2ccccc2F)[nH]n1 -14.9%
COc1ccnc(CN2C(=O)NC(CCc3ccccc3)(C3CCNCC3)C2=O)c1 (stereo not given) 1.39%
CC(C)(O)C#Cc1ccc(-c2nccn2-c2cccc(-n3cncn3)c2)cc1 74.2%
CC(=O)NCC(=O)N1CCC(c2cc(-c3ccc(F)cc3)n[nH]2)CC1 17.2%
Cn1c([C@H]2CCN(Cc3ccc4c(c3)OCO4)C2)nc2ccccc21 16.2% [at 57.5 µM]
O=C(NC1CCCCC1)N1CCCCCC1c1nc(-c2ccncc2)no1 (stereo not given) -2.94%
CN(C)c1ccc(-c2nnc([C@H]3CCN(Cc4ccccn4)C3)o2)cc1 99.6% [at 57.5 µM]
Cc1occc1C(=O)N1CCC(CCC(=O)N2CCN(c3ccccc3)CC2)CC1 56.9%
O=C(NCCc1ccc(Cl)cc1)c1cc(-c2cccs2)c2cccn2n1 1.3%
O=C(CCc1nc(-c2cccnn2)no1)NC1CCCCCCC1 9.7%
Cc1ccc2c(C(=O)NCc3ccc(Cl)cc3)cnn2c1 8.71% [at 57.5 µM]
O=C(Nc1ccc2c(c1)OCCO2)N1CCCC(CN2CCOCC2)CC1 (stereo not given) -2.22%
CCCn1c(C)cnc1CC1CCN(C(=O)NCc2ccc(OC)cc2)C1 (stereo not given) -7.23%
O=C(O)CCC(=O)N1Cc2ccccc2CC2(CCCN(CC3CCOCC3)C2)C1 (stereo not given) 6.2%
COCCN1CC2(CCOC2)N(C2CCN(C(=O)c3ccc(OC)cc3)CC2)C1=O (stereo not given) -0.219%
CN(C)C(=O)c1nc2sccn2c1-c1ccc(C(F)(F)F)cc1 15.4%
Cc1nn(C)c(C)c1CCC(=O)N1CCC(C2CCN(S(C)(=O)=O)CC2)C1 (stereo not given) 8.27%
COc1ccc(CC(=O)N2CCc3nc(-c4cccnc4)[nH]c3C2)cc1 13.2%
C[C@@]12CO[C@@H](CNS(C)(=O)=O)O[C@@H]1CC[C@]1(C)[C@@H]2CC[C@@H](O)[C@H]1CC(=O)NCc1ccco1 0.912%
O=C(N[C@H](c1ccccn1)C1CC(O)C1)c1ccc2c(c1)ncn2CCO (stereo not given in full) 24.4%
Cc1ccccc1N(C)C1CN(Cc2ccc(C#N)cc2)C1 1.83% [at 57.5 µM]
CCc1cn(C[C@H](NC(=O)COC)C(=O)O)c(=O)[nH]c1=O 14.7% [at 57.5 µM]
C=CCOc1cccc(-c2nc(C(=O)NCc3cccc(F)c3)cs2)c1 16.5%
O=C(NCC(F)F)C1CCCN1C(=O)c1cccc(-c2ccccn2)c1 (stereo not given) 2.91%
Cc1cnc(-c2ccncc2)n1C1CCN(S(=O)(=O)c2cccc(F)c2)CC1 3.46%
Cc1noc(C)c1[S+](=O)([O-])N1CC(Oc2ccc(F)cc2F)C1 19.9%
O=C(CC1CCN(C(=O)Cc2ccccc2F)C1)NC1CC1 (stereo not given) 0.139%
CC(C)NC(=O)c1ccccc1OCC1CCCN(Cc2cccnc2)C1 (stereo not given) -3.05%
COc1ccc(S(=O)(=O)N2C[C@@H]3C[C@H](C2)c2ccc(NC(=O)c4ccc(C#N)cc4)c(=O)n2C3)cc1 -1.04%
COc1ccc(CCNc2ncnc3c2CN(C2CCC2)C(=O)N(C)C3)cc1 -0.66%
Cn1cccc1C(=O)NC1CCN(C(=O)N2CC3CC(C2)[C@H]2CCCC(=O)N2C3)CC1 (stereo not given in full) 28.9%
CS(=O)(=O)NC1CCN(c2cc(C3CC(N)C3)nc(N)n2)CC1 (stereo not given) 0.85%
CCCCN1C(=O)c2ccccc2C(C(=O)Nc2nncs2)C12CCCC2 (stereo not given) -4.02%
Cc1noc(-c2cccn3c(CNC(=O)c4ccccc4C)nnc23)n1 14.2%
COc1ccccc1CCC(=O)N1CC(F)(F)C[C@H]1c1nnc(C)o1 -7.89%
O=C(Nc1ccc(F)cc1)N[C@H]1[C@H](O)[C@@H](N2CCCC2)[C@@H]2OC[C@H]1O2 -15.5% [at 57.5 µM]
Cc1ccc(C(=O)N2CCCC(n3c(C)cnc3C3CCOCC3)C2)s1 (stereo not given) 7.31%
Cc1nc(CN2C(=O)OC3(CCN(C(=O)Cc4ccc(O)cc4)CC3)C2(C)c2ccccc2)cs1 (stereo not given) -0.943%
CCNC(=O)N1CC[C@H]2CC(=O)N(Cc3cccnc3)CC[C@H]2C1 -3.04% [at 57.5 µM]
Cn1cnc(C(=O)N2CC(F)(F)C[C@H]2c2nc(C3CC3)no2)c1 1.12%
CNC(=O)c1cc(-c2cnc(OC)nc2)cc2c1OCCN2Cc1cccnc1 -3.27% [at 57.5 µM]
CCCN(CC1CCOC1)C(=O)Nc1ccc(Cl)cc1 (stereo not given) 20.5%
COCCn1c(C(=O)OC)c(NC(=O)CC(C)C)c2cc(NC(C)CCn3cccn3)cnc21 (stereo not given) -2.25%
O=C(c1cccs1)N1CCC(N(C(=O)NCCc2ccccc2)C2CCOCC2)CC1 2.28%
CC(=O)N1CCC(N2C[C@@H]3C[C@H](C2)c2ccc(-c4ccccc4CN(C)C)c(=O)n2C3)CC1 10.5%
O=C1[C@H]2CN(Cc3ccncc3)C[C@H]2C(=O)N1Cc1ccc2c(c1)OCO2 1.15%
O=C(O)c1ccc2c(c1)N(C(=O)c1ccc(F)cc1)CC2 2.63%
C[C@H]1[C@@H]2[C@@H](O)C([C@H](C)C(=O)NCc3cccnc3)CC[C@@]2(C)CC[C@@H]1NC(=O)c1ccccn1 (stereo not given in full) 0.381%
C[C@@H]1CN(C[C@@H]2CN(C(=O)c3ccsc3)C[C@@H]2CO)C[C@H](C)O1 -3.8%
CC(C)(C)CC(=O)N[C@H]1CO[C@H]2[C@@H]1OC[C@H]2OCC(N)=O 15.4% [at 57.5 µM]
Cc1cn2nnc(C(=O)NC3CCC(C)CC3)c2c(=O)[nH]1 (stereo not given) 20.7%
CCCN1CCC2(CCN([S+](=O)([O-])c3cccs3)CC2)Oc2ccccc21 -2.6%
C=CCc1ccccc1OCCN(C)Cc1ccccc1C(=O)O -0.36%
CNC(=O)c1cc2cc(-c3c(C)noc3C)nc(-c3cccc(OC)c3OC)c2o1 23.7% [at 57.5 µM]
O=C(NCCNC(=O)c1cccc(-c2ccsc2)c1)NC1CCCC1 -3.26%
O=C1CCC2(CNC(=O)c3cccnc3)CCCC=C2N1 (stereo not given) 2.98%
Cc1ccccc1C(=O)N1CCCN(c2ccc3nnc(-c4ccccc4)n3n2)CC1 2.8%
CC(C)CC(=O)N1CCN(c2nnc3ccc(C(F)(F)F)cn23)CC1 9.59%
COc1cc(CN2CCC(CO)(CN3CCCC3)CC2)ccc1F -2.18%

An excerpt from above in order of heavy-atom count, smallest number first:
Activity % (negative = inhibition), inactive:
Cc1ccc(C(=O)NCCn2c(C)cnc2C)s1 0.905%
COCCc1noc([C@@H]2CC(F)(F)CN2C(=O)c2ccoc2)n1 10.5%
COc1cc(CN2CCC(CO)(CN3CCCC3)CC2)ccc1F -2.18%
O=C(O)CCC(=O)N1Cc2ccccc2CC2(CCCN(CC3CCOCC3)C2)C1 (stereo not given) 6.2%
Cn1cc(CN2CCN(c3cnccn3)CC2)c(-c2ccc(C3CCCCC3)cc2)n1 14.1%

No new results follow: an excerpt of the list.
Activity % (negative = inhibition), inactive:
COc1ccc(CC(=O)Nc2ccc3c(c2)CN(CCOc2ccccc2)C(=O)C(C)O3)cc1 (stereo not given) 2.19%
O=Cc1ccc(-c2cc(C(F)(F)F)ccc2Cl)cc1 -16% [at 57.5 µM]
